Drawing on patent publication US20200230201A1 (CITY OF HOPE, published 2020), this text covers binding for 1 molecule.

The chains behind the UniProt entries cited, without tags or fusion partners. Where a name states a change or a piece, a line headed by the entry shows the natural chain unless it says otherwise.
UniProt Q15672: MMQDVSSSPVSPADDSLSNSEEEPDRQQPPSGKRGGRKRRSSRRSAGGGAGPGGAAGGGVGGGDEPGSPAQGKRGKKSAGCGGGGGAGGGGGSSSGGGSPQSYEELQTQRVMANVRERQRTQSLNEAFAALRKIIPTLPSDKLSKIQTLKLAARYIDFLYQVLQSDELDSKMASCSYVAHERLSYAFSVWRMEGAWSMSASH

Results are given in words; binding and its absence hold for the method and conditions named. Binding seen in cells or lysates may run through a third protein. Some results given as binding are weak or reduced against the parent protein; the word gives no strength. Where a sequence is shown, tags or fusion partners need not be part of it.

Assay [1] addresses TWIST1 (wild type, Myc-His tagged) (human) (UniProt Q15672). Kind of assay: Co-IP, GFP pulldown, western blot for TWIST1, HEK-293 cells. For orientation: Immunoblotting shows a protein as a band on a membrane.
Assay [2] shares this target. Kind of assay: Co-IP, GFP pulldown (FIG. 4D legend).

B1: GFP-WR domain fusion protein (peptide, not shown: large carriers)
chain: LELSYAFSVWRMEGAWSMSASH
As for B1, the binding result in assay [1] and in assay [2] was “binds” each time.
